The other results are listed elsewhere or left out.
B1: il2ra_site1_1z92_normal_mot_HHH_b1_00893_000000159_0001_19_35_H_._43152d1d296b358565056a4a32fd9b81_0001_1_af2_0001_0000300029_0000001_0_af2pred_0001_af2pred_1_s … (protein)
chain: DDEELEEKLKEAAENRDVEKLEELLRELLELLGDPAVKFLLEFFERLLKRDEEDAVKNVLRFVSF
B2: il2ra_site1_3nfp_normal_mot_HHH_b2_02066_af2_000000034_0001_1_16_H_._ae2d1c0b5552e85e62693402b9c72bf7_0001_0001_0000300041_0000001_0_af2pred_0001_af2pred (protein)
chain: DSALKYAIRAALEDNDEKALEDILETLEKLLGDPEEAKRVLRELIEELLGDPEQAEEIVREIEER
B3: il2ra_site1_2b5i_sap_10_mot_HHH_b1_06833_000000178_0001_1_19_H_._HHH_b1_04646_af2_0001_0000200012_0000001_0_0001_af2pred_dldesign_0_af2pred (protein)
chain: SSSSSSSDSVEDTVQAYIDEARKLEDKELAKKILRLALRLAKKANNPELIAKVEAVLKELSSSSS
B4: il2ra_site1_3nfp_normal_mot_46d73865503fbedcaf0f3a45445d594c_0001_af2_000000151_0001_1_12_H_._HEEHE_1580_af2_0001_0000600011_0000001_0 (protein)
chain: SAEEDIKRAAEKIAEWIGIPSIEIEVHNGEVTVHINGTDNDARVAARLIRQAAESLGVPLTVHLE
B5: il2ra_site1_2b5i_sap_18_mot_89dc1dc23437faef961419e82e151d9c_0001_af2_000000202_0001_15_32_H_._9f08b0091ee0dae2b2d48aa630d4ec63_0001_1_0001_0000400022_0000001_0 … (protein)
chain: SSSSSVEETLEAYEKEAKKLIEEGKKEEAKKILLLGIRFARKHGLPERVERLEKLLKELESSSSS
B6: il2ra_site2_2erj_normal_mot_HHH_b1_00941_000000060_0001_45_58_H_._HHH_b2_06018_0001_0000100008_0000001_1 (protein)
chain: SSSSSDLRELFELLNELDRLVYEGDEEEAQKLIEEIRRLAEELNSENAEEALRFLEEQLNSSSSS
B7: il2ra_site1_2b5i_sap_20_mot_HHH_b1_01540_000000292_0001_42_56_H_._HHH_b1_05417_af2_0001_0000100005_0000001_0_0001_af2pred_0001_af2pred_1 (protein)
chain: SSSSDDFEKVLELYREASKLFRNGNPEEARELLEEALRIAEEGGDPKLAEQVEHMLKLLSSSSSS
B8: il2ra_site1_2b5i_sap_13_mot_0e5a94e4a5addaac739760efb25f0f5d_0001_000000246_0001_18_32_H_._HHH_b1_00333_af2_0001_0000100004_0000001_0_0001_af2pred_dldesign_0_af … (protein)
chain: DPEIDEIKETLVALGHNLAARILKLLRKMAERGDEEAKKTLEEILELAKKDPEAAAAYLLNLNKE
B9: il2ra_site2_2erj_sap_13_mot_HHH_b1_01540_af2_000000184_0001_42_54_H_._HHH_b1_06494_0001_0000300007_0000001_0_0001 (protein)
chain: SSSSDELHRLYELAVLLMHLVARNDREEFEEVVREAEELAEKLNSESAKEAIEQAERLLGSSSSS
B10: il2ra_site1_3nfp_sap_25_mot_HHH_b2_07336_000000189_0001_1_16_H_._202528fb31f71a18f660cfa3f1cee511_0001_1_af2_0001_0000400024_0000001_0_0001_af2pred_0001_1_af2pr … (protein)
chain: SSSSSDEREEVEKLLEEAKEIEDPKEANRVIREAAKIAHEAGNPELKRLVEKVMRELAKSSSSSS
B11: il2ra_site2_3nfp_normal_mot_HHH_b2_00429_000000100_0001_21_37_H_._HHH_b1_00283_af2_0001_0000300031_0000001_1 (protein)
chain: SSSSDEEARELAEQAEELAKRGDDEEVRKLLQHAVEIAYELRNHELFAFVADVAYKLYQLKSSSS
B12: il2ra_site2_2erj_sap_20_mot_HHH_b1_06777_000000153_0001_1_20_H_._HHH_b1_00201_af2_0001_0000300003_0000001_0_0001 (protein)
chain: SSSSSDEYRELYELLNELMRLVEEGDEEEIERVAEEAREVAEKLQSEATKRVIEHLLRLYSSSSS
B13: il2ra_site1_1z92_normal_mot_HHH_b1_01245_000000029_0001_23_39_H_._HHH_b1_01554_af2_0001_0000200014_0000001_0_af2pred_0001_af2pred (protein)
chain: SSSSSSERDARIIVRMAVRAAELSEEQEEKLQELAEELVKRGYSFEEISRILDKIAAELHSSSSS
B14: il2ra_site1_3nfp_sap_7_mot_HHH_b1_00258_000000025_0001_42_56_H_._HHH_b2_02295_af2_0001_0000700036_0000001_0_0001_af2pred_0001_af2pred_swapped (protein)
chain: SSSSSAELAKEVDELYKEARKLLEEGDDEKVEELIRLMEEILEKRNDKAIERMIRIIKKALSSSS
B15: il2ra_site1_1z92_sap_23_mot_HHH_b1_04002_af2_000000251_0001_1_15_H_._HHH_b2_00568_0001_0000100008_0000001_0_0001_af2pred_dldesign_0_af2pred (protein)
chain: SMEKEARELLRHAPTPETLYNALKKLFSVNPDPEEKKAFADVCAAIARELGREDLVAATRRALLE
B16: il2ra_site2_2erj_sap_18_mot_HHH_b2_01457_af2_000000298_0001_23_40_H_._HHH_b1_06154_0001_0000100001_0000001_0_0001 (protein)
chain: SSSSSDELEEFIEELAEKLGLDEDAKRALEETLEHAKRLGVSEEEIKKFLEEWAKLVRGSSSSSS
B17: il2ra_site1_3nfp_normal_mot_HHH_b2_04366_af2_000000103_0001_1_19_H_._HHH_b1_00003_af2_0001_0000300013_0000001_0_af2pred_0001_af2pred (protein)
chain: SSSSDVEEFLEEIKEELREALEKGDARLADKIFREAVRELAKKGNPELAKELFEFLEELISSSSS
B18: il2ra_site2_2erj_sap_23_mot_HHH_b1_05749_af2_000000086_0001_23_39_H_._HHH_b2_05738_af2_0001_0000100008_0000001_0_0001 (protein)
chain: SSSSAYEYAARVTMRVIELAKEGDEEEAKRLLEEAEKYLEELGDEVALKYIELALEDLERNSSSS
B19: il2ra_site2_2erj_sap_28_mot_HHH_b1_03572_af2_000000164_0001_41_56_H_._HHH_b1_00072_0001_0000100006_0000001_0_0001_af2pred_0001_af2pred (protein)
chain: SSSSSSEAEELVERLVEELNLSEEEKELLEEAAKRLEEAGYDEELAEEILRLLVEALEKLSSSSS

Biological target: il2ra, P01589
Assay: yeast display titration

Apparent Kd, inactive:
B1 > 2780 nM, B2 no binding seen, B3 no binding seen, B4 no binding seen, B5 no binding seen, B6 no binding seen, B7 no binding seen, B8 no binding seen, B9 no binding seen, B10 no binding seen, B11 no binding seen, B12 no binding seen, B13 no binding seen, B14 no binding seen, B15 no binding seen, B16 no binding seen, B17 > 619 nM, B18 no binding seen, B19 no binding seen
